Test results published in US11433111B2 (priority 2019, dated 2022).

Experiments:
[1] = tested on: scopolamine induced memory impairment in male Swiss albino mice; assay: Novel object recognition test (NORT), scopolamine induced memory impairment; details: 5 mg/kg p.o., scopolamine 1 mg/kg i.p.; for NORT (Recognition Index): mean; for NORT (Discrimination Index): mean (SEM in next line)
[2] = tested on: Reduced glutathione (GSH); assay: Estimation of reduced glutathione (GSH) in brain homogenate; details: 5 mg/kg p.o., scopolamine mice, mean
Lipid peroxidation (MDA) = assay: Lipid peroxidation (LPO) assay in brain homogenate; details: 5 mg/kg p.o., scopolamine mice, mean

**Q.** Which “NORT (Recognition Index)” value [1] does the source give for `COc1cc2c(cc1OC)C(=O)C(CC1CCN(Cc3ccccc3)CC1)C2` (stereo not shown) [Donepezil] here?
**A.** Its value is 0.513.

**Q.** What about the “NORT (Discrimination Index)” value [1] of the same compound?
**A.** The value was 0.025.

**Q.** And the “NORT (Discrimination Index)” value ([1]; listed as donepezil)?
**A.** The value was “significantly (P<0.01) improved”.

**Q.** What about the “NORT (Recognition Index)” value ([1]; listed as donepezil) of the same compound?
**A.** Its value is “significantly (P<0.01) improved”.

**Q.** And the “Reduced Glutathione” value [2]?
**A.** Its value is 68.17 μmol/mg of protein.

**Q.** What about the “Reduced Glutathione” value ([2]; listed as donepezil) of the same compound?
**A.** Its value is “increasing trend in GSH levels but there was no statistical significance observed”.

**Q.** What about the “Lipid Peroxidation” value (Lipid peroxidation (MDA)) of the same compound?
**A.** Its value is 1798.77 μmol MDA/mg of protein.
